In publication PMC10279700, “Structural insights into regulation of the PEAK3 pseudokinase scaffold by 14-3-3” (Nature Communications, 2023):
These are yes or no findings as the source states them, for the method shown. Binding seen in cells or lysates may run through a third protein. Some binding calls cover weakened binding; strength is not graded here. Tags and fused reporters may be left off the sequences shown.

Assays:
[1] = molecular target: FLAG-tagged PEAK3 S69A (human) (UniProt Q6ZS72); experiment: co-IP; HA-tagged and FLAG-tagged PEAK3 (WT or S69A) co-expressed in HEK293; anti-FLAG or anti-HA/protein A beads; Western blot
[2] = molecular target: FLAG-tagged WT PEAK3 (human) (UniProt Q6ZS72); experiment: as above

binding [1] | binding [2] | Binder
binds |  | FLAG-tagged PEAK3 S69A (protein, UniProt Q6ZS72 1-473) MSSPEPPTEPPEPDNPTWSTQPTYSNLGQIRAHLLPSKACRLRTPGSLSTNPEPLPPPLPKKILTRTQALPTRRTLHPSSIQVQPPRRPFLGSHSVDKSQAAVGPACLPAELTFGPADAPLGLSLRDLHSPEAVHTALAARQLQGLRTIYARLRARLMGGHPGPCHPGHSFRLLDSSPCAESGDALYYRVVRAHEDAWHILVAKVPKPGADVPHPWGLELQASLSPHFNLQGLCGLVPEGTLPGAPWRGAVALAAEVPERTVAQWLAEACTQPPEEFVWAVALLLLQLSAALKFLEAWGAALVELRPENLLLVAPRGCATTGPPRLLLTDFGRVCLQPPGPPGSPGPHAPQLGSLLRALLSLAAPSTTPLAAGLELLAAQLTRLRPSASRTRGALQALLWGPGPELRGRGAPLGPWLRALGPWLRVRRGLLVLRLAERAAGGEAPSLEDWLCCEYLAEATESSMGQALALLWD
 | binds | FLAG-tagged WT PEAK3 (protein, UniProt Q6ZS72 1-473) MSSPEPPTEPPEPDNPTWSTQPTYSNLGQIRAHLLPSKACRLRTPGSLSTNPEPLPPPLPKKILTRTQSLPTRRTLHPSSIQVQPPRRPFLGSHSVDKSQAAVGPACLPAELTFGPADAPLGLSLRDLHSPEAVHTALAARQLQGLRTIYARLRARLMGGHPGPCHPGHSFRLLDSSPCAESGDALYYRVVRAHEDAWHILVAKVPKPGADVPHPWGLELQASLSPHFNLQGLCGLVPEGTLPGAPWRGAVALAAEVPERTVAQWLAEACTQPPEEFVWAVALLLLQLSAALKFLEAWGAALVELRPENLLLVAPRGCATTGPPRLLLTDFGRVCLQPPGPPGSPGPHAPQLGSLLRALLSLAAPSTTPLAAGLELLAAQLTRLRPSASRTRGALQALLWGPGPELRGRGAPLGPWLRALGPWLRVRRGLLVLRLAERAAGGEAPSLEDWLCCEYLAEATESSMGQALALLWD
